These are yes or no findings as the source states them, for the method shown. In cells and extracts the contact can be indirect. Binding calls can cover weak binding; strength is not graded here. Sequences can lack the tags named with a protein.
Target: AtRsmD-GFP (p35S:AtRsmD-GFP) transiently expressed in N. benthamiana (Arabidopsis thaliana)
Experiment: co-IP

B1: RPS20-Myc (protein, UniProt Q9ASV6 80-202)
chain: AAAPTKKADSAAKRARQAEKRRVYNKSKKSEARTRMKKVLEALEGLKKKTDAQADEIVTVEKLIGEAYSAIDKAVKVKALHKNTGARRKSRLARRKKAVEIHHGWYVPDAAAAAPSEAVPMAA
In the case of B1, the binding is reported as “binds”.
